Measured values: US20150210767A1 (GlaxoSmithKline, published 2015)
No constants are given. Whether binding was seen depends on the method and setting. Some results given as binding are weak or reduced against the parent protein; the word gives no strength.

Amino acid sequences for entries named in this document (tags omitted). Residues count along the entry.
UniProt P19438, residues 30-211: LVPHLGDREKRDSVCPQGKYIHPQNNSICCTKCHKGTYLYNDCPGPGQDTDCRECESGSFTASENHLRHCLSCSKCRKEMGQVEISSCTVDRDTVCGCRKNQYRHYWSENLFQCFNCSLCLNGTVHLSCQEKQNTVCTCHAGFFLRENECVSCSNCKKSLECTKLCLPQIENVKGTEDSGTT

Molecular target: biotinylated recombinant human soluble TNFR1 (human) (UniProt P19438)
Assay: BIAcore (SPR), biotinylated human TNFR1 on streptavidin chip

| binding | Binder |
| --- | --- |
| binds | DMS5544 (bispecific antibody, Single-chain genetic fusion of the anti-TNFR1 VH dAb DOM1h-574-188, linker AST and the anti-serum albumin Vk dAb DOM7h-11-3; also called DOM1h-574-188 - Ala-Ser-Thr - DOM7h-11-3; anti-TNFR1/AlbudAb fusion) EVQLLESGGGLVQPGGSLRLSCAASGFTFDKYSMGWVRQAPGKGLEWVSQISDTADRTYYAHSVKGRFTISRDNSKNTLYLQMNSLRAEDTAVYYCAIYTGRWVPFEYWGQGTLVTVSSASTDIQMTQSPSSLSASVGDRVTITCRASRPIGTTLSWYQQKPGKAPKLLILWNSRLQSGVPSRFSGSGSGTDFTLTISSLQPEDFATYYCAQAGTHPTTFGQGTKVEIKR |
| binds | DMS5542 (bispecific antibody, Single-chain genetic fusion of the anti-TNFR1 VH dAb DOM1h-574-214, linker AST and the anti-serum albumin Vk dAb DOM7h-11-3; also called DOM1h-574-214 - Ala-Ser-Thr - DOM7h-11-3; anti-TNFR1/AlbudAb fusion) EVQLLESGGGLVQPGGSLRLSCAASGFTFSKYSMGWVRQAPGKGLEWVSQISDTADRTYYADSVKGRFTISRDNSKNTLYLQMNSLRAEDTAVYYCAIYTGRWVPFEYWGQGTLVTVSSASTDIQMTQSPSSLSASVGDRVTITCRASRPIGTTLSWYQQKPGKAPKLLILWNSRLQSGVPSRFSGSGSGTDFTLTISSLQPEDFATYYCAQAGTHPTTFGQGTKVEIKR |
| binds | DMS5535 (bispecific antibody, Single-chain genetic fusion of the anti-TNFR1 VH dAb DOM1h-574-196, linker AST and the anti-serum albumin Vk dAb DOM7h-11-3; also called DOM1h-574-196 - Ala-Ser-Thr - DOM7h-11-3; anti-TNFR1/AlbudAb fusion) EVQLLESGGGLVQPGGSLRLSCAASGFTFSKYSMGWVRQAPGKGLEWVSQISDTADRTYYAHSVKGRFTISRDNSKNTLYLQMNSLRAEDTAVYYCAIYTGRWEPFEYWGQGTLVTVSSASTDIQMTQSPSSLSASVGDRVTITCRASRPIGTTLSWYQQKPGKAPKLLILWNSRLQSGVPSRFSGSGSGTDFTLTISSLQPEDFATYYCAQAGTHPTTFGQGTKVEIKR |
